Measurements reported in PubChem BioAssay AID1159590 (NIAID, 2016)

Purpose: 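Finding genes that mouse macrophage TLR2 agonist signalling relies on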
Cell system: mouse RAW264.7 macrophage reporter cells expressing GFP-p65 and a Tnf promoter-mCherry
Knock-down reagent: single siRNA against mouse genes
Timing: 48 to 72 hours after siRNA transfection, then 40 minutes of ligand
Treatment: Pam3CSK4 (TLR2/1 agonist) for 40 minutes before fixation; dose not given
Detection: 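p65 nuclear translocation measured by high-content imaging, shown for each siRNA as a robust z-score averaged across replicates, relative to negative controls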
Scale: p65 nuclear entry z-score: higher = more p65 moved into nuclei than in negative-control wells
Active means: In these data the active calls have p65 nuclear entry z-score, replicate mean at about -1.5 or lower, or at about 1.5 or higher
Calls: active = strong change, up or down; inactive = little change
This is an unselected part of 756 reagents tested. In the full data, 128 (17%) got an active call. 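Calls are two-sided: both reduced and increased p65 nuclear entry count as active.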 Reagents against one gene are numbered here. Not given: the amount of reagent.

Elf4 (GeneID 56501) #1: p65 nuclear entry z-score, replicate mean = -0.87; Outcome = inactive
Elf4 (GeneID 56501) #2: p65 nuclear entry z-score, replicate mean = 0.151; Outcome = inactive
Elf4 (GeneID 56501) #3: p65 nuclear entry z-score, replicate mean = -0.866; Outcome = inactive
Elf4 (GeneID 56501) #4: p65 nuclear entry z-score, replicate mean = -1.48; Outcome = inactive
Elf4 (GeneID 56501) #5: p65 nuclear entry z-score, replicate mean = -0.271; Outcome = inactive
Elf4 (GeneID 56501) #6: p65 nuclear entry z-score, replicate mean = -1.64; Outcome = active
Tlr6 (GeneID 21899) #1: p65 nuclear entry z-score, replicate mean = -2.58; Outcome = active
Tlr6 (GeneID 21899) #2: p65 nuclear entry z-score, replicate mean = -1.5; Outcome = inactive
Tlr6 (GeneID 21899) #3: p65 nuclear entry z-score, replicate mean = -3.05; Outcome = active
Tlr6 (GeneID 21899) #4: p65 nuclear entry z-score, replicate mean = 1.12; Outcome = inactive
Tlr6 (GeneID 21899) #5: p65 nuclear entry z-score, replicate mean = -1.22; Outcome = inactive
Tlr6 (GeneID 21899) #6: p65 nuclear entry z-score, replicate mean = -1.45; Outcome = inactive
Pik3r1 (GeneID 18708) #1: p65 nuclear entry z-score, replicate mean = -0.55; Outcome = inactive
Pik3r1 (GeneID 18708) #2: p65 nuclear entry z-score, replicate mean = -0.66; Outcome = inactive
Pik3r1 (GeneID 18708) #3: p65 nuclear entry z-score, replicate mean = -0.0717; Outcome = inactive
Pik3r1 (GeneID 18708) #4: p65 nuclear entry z-score, replicate mean = -1.67; Outcome = active
Pik3r1 (GeneID 18708) #5: p65 nuclear entry z-score, replicate mean = -1; Outcome = inactive
Pik3r1 (GeneID 18708) #6: p65 nuclear entry z-score, replicate mean = -1.38; Outcome = inactive
Irf9 (GeneID 16391) #1: p65 nuclear entry z-score, replicate mean = -0.274; Outcome = inactive
Irf9 (GeneID 16391) #2: p65 nuclear entry z-score, replicate mean = -1.77; Outcome = active
Irf9 (GeneID 16391) #3: p65 nuclear entry z-score, replicate mean = -0.0382; Outcome = inactive
Irf9 (GeneID 16391) #4: p65 nuclear entry z-score, replicate mean = -0.805; Outcome = inactive
Irf9 (GeneID 16391) #5: p65 nuclear entry z-score, replicate mean = -1.85; Outcome = active
Irf9 (GeneID 16391) #6: p65 nuclear entry z-score, replicate mean = -1.42; Outcome = inactive
Arf6 (GeneID 11845) #1: p65 nuclear entry z-score, replicate mean = -0.567; Outcome = inactive
Arf6 (GeneID 11845) #2: p65 nuclear entry z-score, replicate mean = -0.324; Outcome = inactive
Arf6 (GeneID 11845) #3: p65 nuclear entry z-score, replicate mean = -1.42; Outcome = inactive
Arf6 (GeneID 11845) #4: p65 nuclear entry z-score, replicate mean = -0.792; Outcome = inactive
Arf6 (GeneID 11845) #5: p65 nuclear entry z-score, replicate mean = -0.613; Outcome = inactive
Arf6 (GeneID 11845) #6: p65 nuclear entry z-score, replicate mean = -1.55; Outcome = active
Chuk (GeneID 12675) #1: p65 nuclear entry z-score, replicate mean = -0.0716; Outcome = inactive
Chuk (GeneID 12675) #2: p65 nuclear entry z-score, replicate mean = -1.82; Outcome = active
Chuk (GeneID 12675) #3: p65 nuclear entry z-score, replicate mean = 0.253; Outcome = inactive
Chuk (GeneID 12675) #4: p65 nuclear entry z-score, replicate mean = 1.48; Outcome = inactive
Chuk (GeneID 12675) #5: p65 nuclear entry z-score, replicate mean = -1.84; Outcome = active
Chuk (GeneID 12675) #6: p65 nuclear entry z-score, replicate mean = -0.521; Outcome = inactive
Ep300 (GeneID 328572) #1: p65 nuclear entry z-score, replicate mean = -0.81; Outcome = inactive
Ep300 (GeneID 328572) #2: p65 nuclear entry z-score, replicate mean = -0.766; Outcome = inactive
Ep300 (GeneID 328572) #3: p65 nuclear entry z-score, replicate mean = -1.69; Outcome = active
Ep300 (GeneID 328572) #4: p65 nuclear entry z-score, replicate mean = 2.07; Outcome = active
Ep300 (GeneID 328572) #5: p65 nuclear entry z-score, replicate mean = -0.101; Outcome = inactive
Ep300 (GeneID 328572) #6: p65 nuclear entry z-score, replicate mean = -0.469; Outcome = inactive
Mapk13 (GeneID 26415) #1: p65 nuclear entry z-score, replicate mean = -0.749; Outcome = inactive
Mapk13 (GeneID 26415) #2: p65 nuclear entry z-score, replicate mean = -1.73; Outcome = active
Mapk13 (GeneID 26415) #3: p65 nuclear entry z-score, replicate mean = -0.721; Outcome = inactive
Mapk13 (GeneID 26415) #4: p65 nuclear entry z-score, replicate mean = -0.917; Outcome = inactive
Mapk13 (GeneID 26415) #5: p65 nuclear entry z-score, replicate mean = 1.27; Outcome = inactive
Mapk13 (GeneID 26415) #6: p65 nuclear entry z-score, replicate mean = 0.835; Outcome = inactive

Records listed so far whose target name starts with A or a:
Arf6 (GeneID 11845) #1: p65 nuclear entry z-score, replicate mean = -0.567; Outcome = inactive
Arf6 (GeneID 11845) #2: p65 nuclear entry z-score, replicate mean = -0.324; Outcome = inactive
Arf6 (GeneID 11845) #3: p65 nuclear entry z-score, replicate mean = -1.42; Outcome = inactive
Arf6 (GeneID 11845) #4: p65 nuclear entry z-score, replicate mean = -0.792; Outcome = inactive
Arf6 (GeneID 11845) #5: p65 nuclear entry z-score, replicate mean = -0.613; Outcome = inactive
Arf6 (GeneID 11845) #6: p65 nuclear entry z-score, replicate mean = -1.55; Outcome = active
